Source: PubChem BioAssay AID743454 (Peter MacCallum Cancer Centre, 2014)
The deposit covers about 18,000 reagents; below is an unselected part. Of all reagents, 450 (2.5%) are marked active. 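Single biological run; no consistent viability z cut-off exists, so the class columns, not z-scores, define the calls.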 The numbers tell different reagents against one gene apart.

- Screen: 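Search for knock-downs that restore vorinostat killing in resistant colon cancer cells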 (primary screen)
- Cells: human HCT116-VR colon cancer cells, selected for vorinostat resistance
- Knock-down reagent: siRNA pool against human genes, 40 nM siRNA pool
- Timing: vorinostat for 24 h, read-out about 72 h after transfection
- Treatment: vorinostat at 2.5 µM final
- Detection: 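Two measures, CellTiter-Fluor viability and luminescent caspase 3/7 activity, each as fold change against same-plate mock wells, mean of duplicates, then screen-wide robust z-score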
- Reading the numbers: viability robust z-score: higher = more viable cells than screen typical; caspase robust z-score: higher = more caspase 3/7 activity than screen typical
- Active means: 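a knock-down is a hit when classed RV1 or RV2 for lowered viability, or CA1 or CA2 for caspase activation; those lethal without drug were dropped; hits were retested singly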

gene	pool no.	viability hit class	caspase hit class	viability robust z-score	caspase robust z-score	activity call
SRCIN1 (GeneID 80725)	1	no change	no change	-0.26	-0.07	inactive
ASIC5 (GeneID 51802)	1	no change	no change	-1.38	-0.4	inactive
RIPOR1 (GeneID 79567)	1	no change	no change	-0.76	-0.43	inactive
ZNF471 (GeneID 57573)	1	no change	no change	1.78	-0.32	inactive
MIR9-1HG (GeneID 10485)	1	no change	no change	-0.74	0.22	inactive
OR8K5 (GeneID 219453)	1	no change	no change	-0.08	0.42	inactive
RIMS2 (GeneID 9699)	1	no change	no change	1.06	-0.02	inactive
CD2BP2 (GeneID 10421)	1	no change	no change	-0.81	0.24	inactive
CHMP6 (GeneID 79643)	1	no change	no change	0.32	0.34	inactive
GPNMB (GeneID 10457)	1	no change	no change	-0.6	0.99	inactive
MAPK8IP3 (GeneID 23162)	1	no change	no change	2.3	-0.49	inactive
SOX14 (GeneID 8403)	1	no change	no change	-2.38	0.55	inactive
IL36G (GeneID 56300)	1	no change	no change	1.46	2.8	inactive
F11R (GeneID 50848)	1	no change	no change	-0.67	-0.88	inactive
DRC9 (GeneID 84223)	1	no change	no change	-1.21	0.59	inactive
CIBAR2 (GeneID 339145)	1	no change	no change	0.32	0.68	inactive
AGPAT3 (GeneID 56894)	1	no change	no change	0.93	0.57	inactive
BCAR3 (GeneID 8412)	1	no change	no change	-1.36	-0.83	inactive
YPEL2 (GeneID 388403)	1	no change	no change	1.29	-0.32	inactive
ARAF (GeneID 369)	1	no change	no change	1.57	-0.52	inactive
KLHL1 (GeneID 57626)	1	no change	no change	0.43	5.11	inactive
LY9 (GeneID 4063)	1	no change	no change	-1.12	-0.88	inactive
WWOX (GeneID 51741)	1	no change	no change	-1.94	3.69	inactive
FAM50B (GeneID 26240)	1	no change	no change	-0.84	3.38	inactive
ZNF805 (GeneID 390980)	1	no change	no change	1.36	0.64	inactive
ZNF501 (GeneID 115560)	1	no change	no change	-0.84	-1.09	inactive
EPSTI1 (GeneID 94240)	1	no change	no change	0.02	-0.48	inactive

Ordered by “viability robust z-score” (highest first): 7 of the entries above
gene	pool no.	viability hit class	caspase hit class	viability robust z-score	caspase robust z-score	activity call
MAPK8IP3 (GeneID 23162)	1	no change	no change	2.3	-0.49	inactive
IL36G (GeneID 56300)	1	no change	no change	1.46	2.8	inactive
CHMP6 (GeneID 79643)	1	no change	no change	0.32	0.34	inactive
GPNMB (GeneID 10457)	1	no change	no change	-0.6	0.99	inactive
F11R (GeneID 50848)	1	no change	no change	-0.67	-0.88	inactive
CD2BP2 (GeneID 10421)	1	no change	no change	-0.81	0.24	inactive
SOX14 (GeneID 8403)	1	no change	no change	-2.38	0.55	inactive

Continued.
gene	pool no.	viability hit class	caspase hit class	viability robust z-score	caspase robust z-score	activity call
ZNF184 (GeneID 7738)	1	no change	no change	0.22	3.74	inactive
H2BC12 (GeneID 85236)	1	no change	no change	0.74	-0.52	inactive
C11orf16 (GeneID 56673)	1	no change	no change	-1.64	1.97	inactive
TAX1BP3 (GeneID 30851)	1	no change	no change	0.06	-1.22	inactive
AGXT (GeneID 189)	1	no change	no change	-0.58	4	inactive
KCNC4 (GeneID 3749)	1	no change	no change	0.35	1.19	inactive
CADM4 (GeneID 199731)	1	no change	no change	-1.21	4.12	inactive
MT1F (GeneID 4494)	1	no change	no change	0.22	0.46	inactive
NTSR2 (GeneID 23620)	1	no change	no change	0.14	2.68	inactive
GIMAP5 (GeneID 55340)	1	no change	no change	-0.91	-0.04	inactive
FSIP2 (GeneID 401024)	1	no change	no change	0.97	-0.22	inactive
FSIP2 (GeneID 401024)	2	no change	no change	-0.52	-0.21	inactive
SUMF1 (GeneID 285362)	1	no change	no change	-1.57	1.74	inactive
NDUFB2 (GeneID 4708)	1	no change	no change	-0.55	-0.06	inactive
CIMAP1B (GeneID 440836)	1	no change	no change	-1.19	-0.58	inactive
COL14A1 (GeneID 7373)	1	no change	no change	0.5	-0.62	inactive
EEF1AKMT2 (GeneID 399818)	1	no change	no change	-0.4	-1.14	inactive
C2orf42 (GeneID 54980)	1	no change	no change	0.66	-0.46	inactive
ZMYM5 (GeneID 9205)	1	no change	no change	0.4	-0.04	inactive
PSMC4 (GeneID 5704)	1	no change	no change	-5.04	0.77	inactive
SCCPDH (GeneID 51097)	1	no change	no change	0.66	0.78	inactive
TNC (GeneID 3371)	1	no change	no change	-0.1	-0.26	inactive
PLA2G10 (GeneID 8399)	1	no change	no change	1.13	-0.82	inactive
NLRP9 (GeneID 338321)	1	no change	no change	0.94	-0.64	inactive
FIBIN (GeneID 387758)	1	no change	no change	0.3	0.42	inactive
TIPARP (GeneID 25976)	1	no change	no change	-0.32	-1.02	inactive
TOR1B (GeneID 27348)	1	no change	no change	0.01	-0.19	inactive
LSP1 (GeneID 4046)	1	no change	no change	1.09	-0.09	inactive
SLC35G1 (GeneID 159371)	1	no change	no change	0.84	-0.74	inactive
CLEC2D (GeneID 29121)	1	no change	no change	-1.21	1.77	inactive
